According to the supplement of paper PMC11732987, “Enantioselective OTUD7B fragment discovery through chemoproteomics screening and high-throughput optimisation” (Communications Chemistry, 2025):
This is one part of the list. The data scatter; read single values as rough.

Each molecule was assayed against T1, PIK3C2A C385 (UniProt O00443) (assay: log2 mean competition ratio of IA-DTB cysteine labelling (DMSO/compound) (log2 ratio); higher = stronger cysteine engagement by compound). Conditions: 50 µM; treatment time: 4 h; cell line lysate: HEK293T.
T1 sequence (whole entry): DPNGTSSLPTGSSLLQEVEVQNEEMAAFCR
Procedure: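 IA-DTB competitive cysteine chemoproteomics in HEK293T RIPA lysate. Lysates were treated with compound 29 or 30 at 50 or 200 µM for 4 h, then IA-DTB (500 µM, 1 h), trypsin-digested, NeutrAvidin-enriched and analysed by diaPASEF. Competition ratio = intensity DMSO / intensity compound (n=4 treated, n=64 DMSO); binding: mean log2 CR ≥ 1 and p ≤ 0.05 plus QC filters. Target is the cysteine site.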

Structure (SMILES) | log2 mean competition ratio
O=C(CCl)N[C@@H]1CCCc2ccccc21 | -0.318
O=C(CCl)N[C@H]1CCCc2ccccc21 | -0.355

Same assay, conditions: 200 µM; treatment time: 4 h; cell line lysate: HEK293T

Structure (SMILES) | log2 mean competition ratio
O=C(CCl)N[C@@H]1CCCc2ccccc21 | -0.394
O=C(CCl)N[C@H]1CCCc2ccccc21 | 0.204
